Source: article PMC9795622

By UniProt entry, the sequences of proteins in these tests, tags left out.
UniProt Q86U44: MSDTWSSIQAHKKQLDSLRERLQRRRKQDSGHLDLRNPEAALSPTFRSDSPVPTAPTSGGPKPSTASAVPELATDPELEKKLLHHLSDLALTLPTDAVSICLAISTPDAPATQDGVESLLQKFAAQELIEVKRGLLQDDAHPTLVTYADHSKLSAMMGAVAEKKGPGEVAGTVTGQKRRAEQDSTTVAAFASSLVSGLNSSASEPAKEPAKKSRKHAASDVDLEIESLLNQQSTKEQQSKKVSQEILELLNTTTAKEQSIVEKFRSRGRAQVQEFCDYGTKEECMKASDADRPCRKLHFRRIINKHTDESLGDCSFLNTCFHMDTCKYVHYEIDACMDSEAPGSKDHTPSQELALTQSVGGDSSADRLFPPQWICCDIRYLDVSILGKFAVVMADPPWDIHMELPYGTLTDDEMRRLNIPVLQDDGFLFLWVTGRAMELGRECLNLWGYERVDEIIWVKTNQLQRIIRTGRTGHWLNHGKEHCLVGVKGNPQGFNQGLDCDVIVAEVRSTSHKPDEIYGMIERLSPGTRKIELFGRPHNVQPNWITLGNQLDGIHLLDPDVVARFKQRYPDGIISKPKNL

Biological target: T1, FLAG-tagged SMYD3 (UniProt Q9H7B4)
T1 sequence: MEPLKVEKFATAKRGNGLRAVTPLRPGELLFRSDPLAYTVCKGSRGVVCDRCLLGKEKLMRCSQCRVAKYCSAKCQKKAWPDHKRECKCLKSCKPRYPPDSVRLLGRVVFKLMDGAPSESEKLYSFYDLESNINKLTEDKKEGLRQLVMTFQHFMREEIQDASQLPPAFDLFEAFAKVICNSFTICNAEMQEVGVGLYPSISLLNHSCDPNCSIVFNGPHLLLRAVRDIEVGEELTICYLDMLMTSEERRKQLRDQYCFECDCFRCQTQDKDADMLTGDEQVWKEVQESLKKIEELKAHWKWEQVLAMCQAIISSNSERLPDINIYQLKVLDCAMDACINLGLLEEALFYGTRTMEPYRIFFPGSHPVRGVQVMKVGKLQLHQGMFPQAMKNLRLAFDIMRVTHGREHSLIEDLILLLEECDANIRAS
Test: affinity purification with mass spectrometry; lysates of LM3 cells expressing FLAG-SMYD3 or FLAG-Vector on anti-FLAG M2 beads, about 1 h at room temperature, eluted with FLAG peptide (0.2 mg/ml), SDS-PAGE, silver stain, LC-MS/MS

binding: binds
Substance: METTL3 (from UniProt Q86U44 1-580)

No constants are given. Whether binding was seen depends on the method and setting. In cells and extracts the contact can be indirect. A yes stands for co-enrichment or nearness to the bait. Other partners may have been found. Tags and fused reporters may be left off the sequences shown.
